What is called AC50 is the midpoint of the concentration-response curve, whichever way the signal moves. A low value points to activity at low concentration.

The values that follow come from PubChem BioAssay AID2685 (National Center for Advancing Translational Sciences (NCATS), 2010).

Some of the results follow. Further columns of the screen follow, without active or inactive calls. Compounds called inactive in the main read-out are mostly missing here. Potencies come from curve fits of mixed quality, noted in brackets.

The test is described as follows: qHTS Assay for Lipid Storage Modulators in Drosophila S3 Cells.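 On cell number change: cells counted by Cell Tracker Red CMTPX staining in the red channel.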 As to conditions: BODIPY lipid droplet fluorescence, 18-24 h; for cell number change: measured here: cell count max response, cells fed with added oleic acid. Summed up: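 Drosophila S3 cells loaded with oleic acid (400 uM, as added) and compounds at several concentrations; lipid droplets imaged by 488-nm laser-scanning cytometry, 500–530 nm intensity and object ratio to cell channel. Percent activity normalized to 20 uM Triacsin C.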

[1] abbreviates: measured here: cell number channel AC50, cells fed with added oleic acid.
Where [2] appears, read: measured here: lipid fluorescence (Fed channel) AC50, cells fed with added oleic acid.

Regarding `COc1ccc(-c2nc3c(c(SCC(=O)Nc4cccc(O)c4)n2)Cc2c(CO)cnc(C)c2O3)cc1`, the cell number change is -30.1%. Also, the AC50 under setting [1] was 8.2 µM [falling, partial curve, poor fit]. The AC50 under setting [2] is 13 µM [falling, partial curve].

As to `O=C(Nc1cccc(Cl)c1)N1CCN(C/C=C/c2ccccc2)CC1`, the cell number change is -17%. The AC50 under setting [2] was 29.1 µM [rising, single point]. In the case of `COc1ccc(CCNC(=O)CCC(=O)N2CCN(S(=O)(=O)c3ccc(Cl)cc3)CC2)cc1OC`, the cell number change is -15.1%. Under setting [1], the AC50 was 6.51 µM [falling, single point]. The concentration at half-maximal activity (AC50) under setting [2] was 0.103 µM [rising, full curve, poor fit].

In the case of `CC(Sc1nnc(C(F)(F)F)n1C)C(=O)Nc1ccc(S(N)(=O)=O)cc1` (stereo not given), the cell number change was -18.1%. For the same compound, under setting [1], the half-maximal activity concentration (AC50) is 0.411 µM [falling, single point]. Also, the AC50 under setting [2] is 0.411 µM [falling, partial curve, poor fit]. Take `CC(C(=O)Nc1nncs1)N1C(=O)C2C3C=CC(C3)C2C1=O` (stereo not given): the cell number change is -18.1%. Besides, under setting [2], the concentration at half-maximal activity (AC50) was 6.51 µM [falling, partial curve]. `Cc1cc(C)n(CCNC(=O)C2CCC(=O)N(Cc3ccc(Cl)cc3)C2)n1` (stereo not given): the cell number change was 5.2%.

As for `Cc1ccc(N(CC(=O)O)S(=O)(=O)c2cccc3nonc23)cc1`, the cell number change turned out to be 5.73%. For the same compound, the AC50 under setting [2] is 0.13 µM [falling, full curve, poor fit]. Consider `Cc1cc2ncn(/N=C/c3ccc(-c4ccccc4)o3)c2cc1C`, for which the cell number change is -69%. Also, the AC50 under setting [1] is 10.3 µM [falling, partial curve, poor fit].

Regarding `N#C/C(=N\Nc1cccc(C(F)(F)F)c1)C(=O)c1csc(-c2cccnc2)n1`, the cell number change is -39.2%. The half-maximal activity concentration (AC50) under setting [2] was 29.1 µM [falling, single point]. For `C=Cc1ccc(N=Cc2c(O)ccc3ccccc23)cc1`, the cell number change was -4.26%. The AC50 under setting [2] was 0.13 µM [falling, full curve, poor fit]. In the case of `COc1cccc(NC(=O)C2CCCN2C(=O)Nc2ccccc2)c1` (stereo not given), the cell number change worked out at 3.36%. The AC50 under setting [2] is 6.51 µM [rising, single point]. `CC(=O)O[C@H]1CC[C@H]2[C@@H]3CCc4cc(O)ccc4[C@H]3CC[C@]12C`: the cell number change was -52.2%. Besides, the AC50 under setting [1] was 10.3 µM [falling, partial curve]. Moreover, the AC50 under setting [2] was 20.6 µM [falling, single point]. `COc1cc(CCNc2ccc3nnc(-c4ccccc4)n3n2)cc(OC)c1OC`: the cell number change was determined as 8.11%. Under setting [2], the AC50 is 1.46 µM [rising, partial curve]. For the compound `Cc1noc(C)c1S(=O)(=O)NC1CCN(Cc2ccccc2)CC1`, the cell number change was 28.6%. Further, the concentration at half-maximal activity (AC50) under setting [2] was 6.51 µM [rising, partial curve]. Consider `O=C(O)c1ccc(N/N=C/c2ccc(OC(=O)c3ccccc3Cl)cc2)cc1`, for which the cell number change was 12.2%. In the case of `CC1NC(=O)NC1CCCCCC(=O)Nc1ccc(F)c(Cl)c1` (stereo not given), the cell number change is 56.4%. The AC50 under setting [1] was 18.4 µM [rising, single point]. With `Cc1occc1C(=O)N1CCCC(N2CCN(c3ccccc3F)CC2)C1` (stereo not given), the cell number change is 17.3%. Also, the half-maximal activity concentration (AC50) under setting [2] was 29.1 µM [rising, single point].

On to `COc1ccc(N2C3=[N+](CC2(C)O)c2ccccc2CC3)cc1` (stereo not given), for which the cell number change was 4.49%. In addition, the concentration at half-maximal activity (AC50) under setting [2] was 18.4 µM [rising, single point]. `O=C(CN1CCN(C(=O)CCC(=O)N2CCC(c3ccccc3)=N2)CC1)Nc1ccc(F)cc1`: the cell number change is -8.35%. The AC50 under setting [2] was 20.6 µM [rising, single point]. In the case of `Oc1c(/C=N/c2ncn[nH]2)ccc2ccccc12`, the cell number change was -0.558%. On to `CC(C)(C)c1ccc(OCC(=O)N2CCCCCC2)c(Br)c1`, for which the cell number change stood at 27.4%. For the same compound, the AC50 under setting [2] was 2.06 µM [falling, partial curve]. Take `O=C(Nc1nc(NC(=O)c2ccco2)n(-c2ccccc2)n1)c1ccccc1`: the cell number change is -109%. Moreover, the AC50 under setting [1] was 16.4 µM [falling, partial curve]. For the same compound, under setting [2], the AC50 was 23.1 µM [falling, single point].

For the compound `Cc1cc(C)n(-c2nc3sc4c(c3c(=O)[nH]2)CCCC4)n1`, the cell number change is -3.48%. Also, under setting [2], the AC50 was 0.13 µM [falling, full curve, poor fit]. Consider `O=C(Cn1ncc(Cl)c(Cl)c1=O)N1CCOCC1`, for which the cell number change is -7.37%.

In the case of `CCc1ccc(NC(=S)NC(=O)c2c(-c3ccccc3Cl)noc2C)cc1`, the cell number change stood at 23.4%. Further, the AC50 under setting [2] was 6.51 µM [rising, full curve]. In the case of `CC(=O)c1ccc(NS(=O)(=O)c2ccc(C)cc2)cc1`, the cell number change worked out at 37%. Moreover, the concentration at half-maximal activity (AC50) under setting [1] was 7.31 µM [rising, partial curve]. On to `CC(=O)N(c1ccc2oc(=O)sc2c1)S(=O)(=O)c1cccc2cccnc12`, for which the cell number change came to 28.2%. For the same compound, the AC50 under setting [2] was 0.13 µM [rising, partial curve, poor fit]. For the compound `Fc1ccc(-c2nnc(CN3CCN(c4ncc(C(F)(F)F)cc4Cl)CC3)o2)cc1`, the concentration at half-maximal activity (AC50) under setting [1] is 0.651 µM [falling, single point].

With `COc1ccc(/C=C2\SC(=S)N(CCCC(=O)Nc3ccccn3)C2=O)cc1OC`, the half-maximal activity concentration (AC50) under setting [2] is 1.84 µM [rising, partial curve]. As to `O=C(CCc1ccccc1)N=C1SC2CS(=O)(=O)CC2N1Cc1ccc(F)cc1` (stereo not given), the cell number change is 13.4%.

On to `CCC(=O)c1ccc(OCC(O)Cn2nc(C)cc2C)cc1` (stereo not given), for which the cell number change is -4.01%. Turning to `O/N=C1/CCSc2ccccc21`, the cell number change is -0.293%. In addition, the AC50 under setting [2] is 0.58 µM [falling, single point]. For `Oc1ccc(-c2nnc(-c3ccccc3)c(-c3ccccc3)n2)cc1`, the cell number change was -62.5%. In addition, under setting [1], the AC50 is 9.2 µM [falling, partial curve]. Besides, the AC50 under setting [2] was 8.2 µM [falling, partial curve]. As for `O=C(NC1CCCC1)C1CC1c1ccccc1` (stereo not given), the cell number change is 14.1%. In the case of `CCOc1ccc(N2CC(C(=O)Nc3ccc(OC)c(S(=O)(=O)N4CCCCC4)c3)CC2=O)cc1` (stereo not given), the concentration at half-maximal activity (AC50) under setting [2] is 0.58 µM [rising, single point].

Turning to `COc1ccc(Cl)cc1NC(=O)c1oc(C)nc1C`, the AC50 was 0.326 µM [rising, full curve] under setting [1] and 0.58 µM [rising, single point] under setting [2]. With `CN(C)/N=C/c1ccc(OS(=O)(=O)c2ccccc2)cc1`, the cell number change was 17.2%. Also, the AC50 under setting [2] is 23.1 µM [rising, partial curve].

With `CCOC(=O)N1CCC(NC(=O)Cn2cccc2C(=O)c2ccccc2C)CC1`, the cell number change was -1.91%. With `O=C(O)C1CC(=O)N(CCc2c[nH]c3ccccc23)C1` (stereo not given), the cell number change is -4.14%. Moreover, the half-maximal activity concentration (AC50) under setting [2] was 0.146 µM [falling, full curve, poor fit]. As to `O=S(=O)(c1ccc2c(c1)CCCN2)N1CCCC2CCCCC21` (stereo not given), the cell number change was -7.23%. Besides, under setting [2], the AC50 is 0.231 µM [falling, full curve, poor fit]. For the compound `O=C(Nc1ccc(O)cc1)c1ccccc1OCc1ccccc1`, the cell number change was -31%. Further, the AC50 under setting [1] is 16.4 µM [falling, single point]. On to `O=C(Nc1cccc(-n2cnnn2)c1)c1cccnc1`, for which the cell number change amounted to 12.8%. `COc1ccccc1-n1c(CNC(=O)c2ccco2)nnc1SCC(=O)Nc1cc(C)ccc1C`: the cell number change was -0.575%. In addition, the AC50 under setting [2] is 6.51 µM [rising, single point]. With `COc1cccc(/C=N/n2cnnc2)c1OCc1ccccc1`, the cell number change was 56.5%. The AC50 under setting [1] was 29.1 µM [rising, single point].

Take `CNC(=O)c1ccc(CNC(=O)OCC(F)(F)F)cc1`: the cell number change was -14%. In addition, under setting [2], the AC50 was 6.51 µM [rising, single point]. For `C[C@H](NC(=O)c1ccco1)C(=O)Nc1ccc(S(=O)(=O)N2CCCC2)cc1`, the cell number change is -14.3%. Under setting [1], the half-maximal activity concentration (AC50) is 0.731 µM [falling, full curve, poor fit]. Under setting [2], the AC50 is 0.92 µM [falling, full curve]. Turning to `CCCC(=O)N(C1CC(C)C(C#N)(C#N)C1(C#N)C#N)N(C)C` (stereo not given), the cell number change is -64.9%. In addition, the AC50 under setting [1] was 5.17 µM [falling, partial curve]. For the same compound, the AC50 under setting [2] is 4.11 µM [falling, full curve]. As for `Cc1cc(C)nc(SCc2cnc(C)nc2N)n1`, the AC50 is 6.51 µM [falling, single point] under setting [1] and 6.51 µM [falling, single point] under setting [2]. As to `c1ccc(-c2cc3c(N4CCOCC4)ncnc3s2)cc1`, the cell number change was -17.4%. Moreover, the half-maximal activity concentration (AC50) under setting [2] is 0.00517 µM [falling, full curve, poor fit]. As for `COc1ccc2nc(SCC(=O)Nc3cc(C)on3)c(C#N)cc2c1`, the cell number change stood at 20.5%. The AC50 under setting [1] is 6.51 µM [rising, single point]. The half-maximal activity concentration (AC50) under setting [2] is 29.1 µM [rising, partial curve, poor fit].

For the compound `N#CC1=C(N)OC2=C(CCc3ccccc32)C1c1ccccc1` (stereo not given), the cell number change was -8.76%. Turning to `CCCC(=O)Nc1ccccc1NC(=O)c1cc(OC)c(OC)c(OC)c1`, the AC50 runs as follows: under setting [1], 0.184 µM [falling, full curve, poor fit]; under setting [2], 6.51 µM [falling, single point].

Consider `COc1ccccc1NC(=O)c1ccccc1Nc1ccccc1`, for which, under setting [1], the half-maximal activity concentration (AC50) was 0.58 µM [rising, single point]. Consider `CC(=O)c1ccc(NC(=O)c2ccc(S(=O)(=O)N3CCCC3)cc2)cc1`, for which the cell number change was found to be 12%. The AC50 under setting [2] is 2.31 µM [rising, partial curve, poor fit].

For `CCC(NC(C)C)C(O)c1ccc(O)c2[nH]c(=O)ccc12` (stereo not given), the cell number change is -14.1%. The concentration at half-maximal activity (AC50) under setting [2] was 0.116 µM [falling, full curve]. Consider `COc1ccccc1CNC(=O)CCNS(=O)(=O)c1ccc2[nH]c(=O)oc2c1`, for which the cell number change was -7.37%. The AC50 under setting [2] is 29.1 µM [rising, single point].

As for `COc1cc(OC)c(NC(=O)c2ccoc2C)cc1Cl`, the cell number change is 5.94%. For the same compound, the concentration at half-maximal activity (AC50) under setting [2] is 9.2 µM [rising, partial curve].

Consider `CC1(C)CC2(CC(C)(C)NC(=O)N2)NC(=O)N1`, for which the cell number change is -35.4%. Further, the AC50 under setting [1] is 0.291 µM [falling, full curve]. Moreover, under setting [2], the concentration at half-maximal activity (AC50) is 0.651 µM [falling, full curve]. On to `CC[C@@]12C(=O)N(c3cccc(F)c3)C(=O)N1[C@H](c1cccc(C)c1)[C@@H]1C(=O)N(Cc3ccccc3)C(=O)[C@@H]12`, for which the cell number change came out at 12.3%. Moreover, the concentration at half-maximal activity (AC50) under setting [2] is 6.51 µM [rising, single point]. For the compound `COc1ccc([N+](=O)[O-])cc1NC(=O)Cc1ccccc1Cl`, under setting [2], the half-maximal activity concentration (AC50) was 8.2 µM [rising, partial curve].
